Results on 5 molecules are retold here after article doi:10.1101/2025.08.01.668199, “Vacuolar Phosphatidylinositol 3,4,5-trisphosphate controls fusion through binding Vam7, and membrane microdomain assembly” (bioRxiv, 2025).

The chains behind the UniProt entries cited, without tags or fusion partners.
UniProt P27801: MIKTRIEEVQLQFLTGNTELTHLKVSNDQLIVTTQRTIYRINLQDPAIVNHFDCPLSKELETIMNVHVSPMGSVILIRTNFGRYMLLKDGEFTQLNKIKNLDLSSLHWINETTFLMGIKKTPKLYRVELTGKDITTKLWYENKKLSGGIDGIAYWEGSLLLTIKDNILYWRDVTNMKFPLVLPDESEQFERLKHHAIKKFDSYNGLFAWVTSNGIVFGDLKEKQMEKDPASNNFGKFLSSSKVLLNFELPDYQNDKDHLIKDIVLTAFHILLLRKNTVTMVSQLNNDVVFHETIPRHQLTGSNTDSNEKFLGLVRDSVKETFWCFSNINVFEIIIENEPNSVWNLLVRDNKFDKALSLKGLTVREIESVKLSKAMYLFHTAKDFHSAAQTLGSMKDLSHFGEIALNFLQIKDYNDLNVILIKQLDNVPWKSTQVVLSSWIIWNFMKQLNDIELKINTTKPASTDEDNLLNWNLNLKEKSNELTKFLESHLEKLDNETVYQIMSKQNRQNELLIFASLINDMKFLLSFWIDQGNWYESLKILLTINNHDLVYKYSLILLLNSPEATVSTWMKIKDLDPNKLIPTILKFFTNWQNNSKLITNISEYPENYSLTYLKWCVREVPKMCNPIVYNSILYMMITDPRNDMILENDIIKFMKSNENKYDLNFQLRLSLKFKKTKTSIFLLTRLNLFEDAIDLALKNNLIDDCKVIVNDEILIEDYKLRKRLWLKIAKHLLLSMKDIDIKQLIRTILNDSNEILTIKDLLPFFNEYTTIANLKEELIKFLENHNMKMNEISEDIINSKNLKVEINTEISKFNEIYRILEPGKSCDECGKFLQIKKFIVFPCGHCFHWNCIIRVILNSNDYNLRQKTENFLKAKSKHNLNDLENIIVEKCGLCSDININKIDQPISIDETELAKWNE
UniProt P20795: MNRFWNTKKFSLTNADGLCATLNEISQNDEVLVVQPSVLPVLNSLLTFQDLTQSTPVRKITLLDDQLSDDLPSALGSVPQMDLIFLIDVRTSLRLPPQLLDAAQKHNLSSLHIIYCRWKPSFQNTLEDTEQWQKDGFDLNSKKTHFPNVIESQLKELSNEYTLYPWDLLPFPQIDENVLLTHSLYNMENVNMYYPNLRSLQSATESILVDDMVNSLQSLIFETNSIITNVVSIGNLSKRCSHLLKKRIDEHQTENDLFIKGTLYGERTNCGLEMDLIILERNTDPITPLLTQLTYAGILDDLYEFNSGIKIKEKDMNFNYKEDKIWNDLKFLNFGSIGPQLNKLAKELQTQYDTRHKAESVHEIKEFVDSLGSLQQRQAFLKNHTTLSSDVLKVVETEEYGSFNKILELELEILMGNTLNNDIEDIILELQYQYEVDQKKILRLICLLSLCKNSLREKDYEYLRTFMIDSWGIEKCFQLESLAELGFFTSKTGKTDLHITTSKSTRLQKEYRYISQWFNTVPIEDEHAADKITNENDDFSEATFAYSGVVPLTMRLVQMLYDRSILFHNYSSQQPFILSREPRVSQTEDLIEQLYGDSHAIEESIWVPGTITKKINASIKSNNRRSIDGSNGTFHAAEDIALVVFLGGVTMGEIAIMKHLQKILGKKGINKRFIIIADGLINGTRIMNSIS
UniProt Q04338: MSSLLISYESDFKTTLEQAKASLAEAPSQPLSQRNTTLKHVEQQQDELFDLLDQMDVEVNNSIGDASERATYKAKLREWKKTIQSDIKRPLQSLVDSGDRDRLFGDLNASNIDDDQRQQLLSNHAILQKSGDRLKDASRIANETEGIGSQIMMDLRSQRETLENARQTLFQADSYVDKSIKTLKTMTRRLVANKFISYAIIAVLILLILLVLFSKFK

Results are given in words; binding and its absence hold for the method and conditions named. Binding seen in cells or lysates may run through a third protein. Some binding calls cover weakened binding; strength is not graded here.

Test [1] concerns the target T1, CBP-Vam3 (Vam3 with an internal calmodulin binding peptide between the N-terminal helical Habc domain and the SNARE domain) (S. cerevisiae (expressed in strain BJ3505)) (UniProt Q12241).
T1 sequence: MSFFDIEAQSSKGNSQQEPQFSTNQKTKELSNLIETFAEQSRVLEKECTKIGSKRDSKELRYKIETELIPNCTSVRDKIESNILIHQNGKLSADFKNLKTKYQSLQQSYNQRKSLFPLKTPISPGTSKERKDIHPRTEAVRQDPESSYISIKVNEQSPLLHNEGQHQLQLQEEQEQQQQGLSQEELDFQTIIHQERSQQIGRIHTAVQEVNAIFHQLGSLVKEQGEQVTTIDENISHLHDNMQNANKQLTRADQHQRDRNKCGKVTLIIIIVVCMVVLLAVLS
The experiment in a line: pull-down; trans-SNARE complex isolation: 15X fusion reactions of CBP-VAM3 nyv1Δ and VAM3 NYV1 vacuoles, 60 min 27°C, buffer alone (also with 2 mM NEM or 50-200 nM GST-PTEN); membranes pelleted, solubilised in 20 mM Tris-Cl pH 7.5, 150 mM NaCl, 1 mM MgCl2, 0.5% Nonidet P-40 alternative, 10% …; CBP-Vam3 held on calmodulin beads with 2 mM CaCl2 overnight at 4°C; immunoblot. (A western blot detects proteins with antibodies after separation by electrophoresis.)

Test [2] has as its target T1, CBP-Vam3 (Vam3 with an internal calmodulin binding peptide between the N-terminal helical Habc domain and the SNARE domain) (S. cerevisiae (expressed in strain BJ3505)). Kind of test: pull-down; as a1, fusion reactions treated with 50, 100, 150 or 200 nM GST-PTEN (removes PI(3,4,5)P3); CBP-Vam3 held on calmodulin beads; immunoblot.
The target is the same in test [3]. Kind of test: pull-down; as a1, fusion reactions treated with 2 mM NEM (prevents SNARE priming); CBP-Vam3 held on calmodulin beads; immunoblot.

For the molecule “HOPS subunit Vps18 (from UniProt P27801 1-918)”, in test [1], the binding result is “binds”.

Turning to “HOPS subunit Vps33 (from UniProt P20795 1-691)”, the binding entry in test [1] is “binds”.

As for “Qb-SNARE Vti1 (from UniProt Q04338 1-217)”, the binding entry in test [2] is given as “no binding (condition: with 200 nM GST-PTEN)”; in test [1] it was “binds”.

B1: R-SNARE Nyv1 (protein, UniProt Q12255 1-253)
chain: MKRFNVSYVEVIKNGETISSCFQPFQKNENYGTITSANEQITPVIFHNLIMDMVLPKVVPIKGNKVTKMSMNLIDGFDCFYSTDDHDPKTVYVCFTLVDMPKILPIRILSGLQEYESNATNELLSSHVGQILDSFHEELVEYRNQTLNSSGNGQSSNGNGQNTISDIGDATEDQIKDVIQIMNDNIDKFLERQERVSLLVDKTSQLNSSSNKFRRKAVNIKEIMWWQKVKNITLLTFTIILFVSAAFMFFYLW
With B1, the results for the binding result in test [2], in test [1] and in test [3] were “no binding (condition: with GST-PTEN (50-200 nM))”, “binds” and “no binding (condition: with 2 mM NEM)”, respectively.

B2: soluble Qc-SNARE Vam7 (protein, UniProt P32912 1-316)
chain: MAANSVGKMSEKLRIKVDDVKINPKYVLYGVSTPNKRLYKRYSEFWKLKTRLERDVGSTIPYDFPEKPGVLDRRWQRRYDDPEMIDERRIGLERFLNELYNDRFDSRWRDTKIAQDFLQLSKPNVSQEKSQQHLETADEVGWDEMIRDIKLDLDKESDGTPSVRGALRARTKLHKLRERLEQDVQKKSLPSTEVTRRAALLRSLLKECDDIGTANIAQDRGRLLGVATSDNSSTTEVQGRTNNDLQQGQMQMVRDQEQELVALHRIIQAQRGLALEMNEELQTQNELLTALEDDVDNTGRRLQIANKKARHFNNSA
Consider B2, for which, in test [1], the binding entry is listed as “binds”.
